# From the supplement of paper PMC8728848
# The other results are listed elsewhere or left out.
# Experiments:
# Experiment in all cases: glycan array binding signal (z-score within array); higher = stronger binding
# Conditions in all cases: glycan notation: IUPAC condensed, linker removed
# [1] = target: Neu5Ac(a2-6)GlcNAc(b1-4)GlcNAc(b1-4)GlcNAc
# In short: (§1)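 Glycan array binding is given as a within-array Z-score, which can be read as non-binding when negative. The arrays, 3228 of them, came from the Consortium for Functional Glycomics database and were retained only where the protein sequence was available. Z-scores were averaged across arrays of the same protein sequence at different concentrations or buffers and across linkers.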
# Neu5Ac(a2-8)Neu5Ac = target: Neu5Ac(a2-8)Neu5Ac
# In short: as §1
# [2] = target: Neu5Ac(a2-8)Neu5Ac(a2-3)Gal(b1-3)GalNAc(b1-4)[Neu5Ac(a2-3)]Gal(b1-4)Glc
# In short: as §1
# [3] = target: Neu5Ac(a2-8)Neu5Ac(a2-3)Gal(b1-3)GalNAc(b1-4)[Neu5Ac(a2-8)Neu5Ac(a2-3)]Gal(b1-4)Glc
# In short: as §1
# [4] = target: Neu5Ac(a2-8)Neu5Ac(a2-3)Gal(b1-4)Glc
# In short: as §1
# [5] = target: Neu5Ac(a2-8)Neu5Ac(a2-3)Gal(b1-4)GlcNAc
# In short: as §1
# [6] = target: Neu5Ac(a2-8)Neu5Ac(a2-3)[Gal(b1-3)GalNAc(b1-4)]Gal(b1-4)Glc
# In short: as §1
# [7] = target: Neu5Ac(a2-8)Neu5Ac(a2-3)[GalNAc(b1-4)]Gal(b1-4)Glc
# In short: as §1
# [8] = target: Neu5Ac(a2-8)Neu5Ac(a2-8)Neu5Ac
# In short: as §1
# [9] = target: Neu5Ac(a2-8)Neu5Ac(a2-8)Neu5Ac(a2-3)Gal(b1-4)Glc
# In short: as §1
# [10] = target: Neu5Ac(a2-8)Neu5Ac(a2-8)Neu5Ac(a2-3)[Gal(b1-3)GalNAc(b1-4)]Gal(b1-4)Glc
# In short: as §1
# [11] = target: Neu5Ac(a2-8)Neu5Ac(a2-8)Neu5Ac(a2-3)[GalNAc(b1-4)]Gal(b1-4)Glc
# In short: as §1
# [12] = target: Neu5Ac(a2-8)Neu5Ac(a2-8)Neu5Ac(a2-8)Neu5Ac(a2-3)[GalNAc(b1-4)]Gal(b1-4)Glc
# In short: as §1
# [13] = target: Neu5Ac(a2-8)Neu5Gc(a2-3)Gal(b1-4)GlcNAc
# In short: as §1
# [14] = target: Neu5Ac(b2-6)Gal(b1-4)GlcNAc
# In short: as §1
# Neu5Ac(b2-6)GalNAc = target: Neu5Ac(b2-6)GalNAc
# In short: as §1
# [15] = target: Neu5Ac9Ac(a2-3)Gal(b1-3)GlcNAc
# In short: as §1
# [16] = target: Neu5Ac9Ac(a2-3)Gal(b1-4)GlcNAc
# In short: as §1
# [17] = target: Neu5Ac9Ac(a2-6)Gal(b1-4)GlcNAc
# In short: as §1
# [18] = target: Neu5Gc(a2-3)Gal(b1-3)GlcNAc
# In short: as §1
# [19] = target: Neu5Gc(a2-3)Gal(b1-3)[Fuc(a1-4)]GlcNAc
# In short: as §1
# Neu5Gc(a2-3)Gal(b1-4)Glc = target: Neu5Gc(a2-3)Gal(b1-4)Glc
# In short: as §1
# [20] = target: Neu5Gc(a2-3)Gal(b1-4)GlcNAc
# In short: as §1
# [21] = target: Neu5Gc(a2-3)Gal(b1-4)GlcNAc(b1-3)Gal(b1-4)GlcNAc(b1-2)Man(a1-3)[Neu5Gc(a2-3)Gal(b1-4)GlcNAc(b1-3)Gal(b1-4)GlcNAc(b1-2)Man(a1-6)]Man(b1-4)GlcNAc(b1-4)GlcNAc
# In short: as §1
# [22] = target: Neu5Gc(a2-3)Gal(b1-4)[Fuc(a1-3)]GlcNAc
# In short: as §1
# [23] = target: Neu5Gc(a2-6)Gal(b1-4)GlcNAc
# In short: as §1
# Neu5Gc(a2-6)GalNAc = target: Neu5Gc(a2-6)GalNAc
# In short: as §1
# [24] = target: Neu5Gc(a2-8)Neu5Ac(a2-3)Gal(b1-4)GlcNAc
# In short: as §1
# [25] = target: Neu5Gc(a2-8)Neu5Gc(a2-3)Gal(b1-4)GlcNAc
# In short: as §1
# [26] = target: Neu5Gc(a2-8)Neu5Gc(a2-3)Gal(b1-4)GlcNAc(b1-3)Gal(b1-4)GlcNAc
# In short: as §1
# [27] = target: Neu5Gc(a2-8)Neu5Gc(a2-6)Gal(b1-4)GlcNAc
# In short: as §1
# [28] = target: Neu5Gc(b2-6)Gal(b1-4)GlcNAc
# In short: as §1
binder,measurement,setting,value
Clone646PsrP (Streptococcus pneumoniae) (protein) MDHHHHHHHHASENLYFQGAPAINASLNIAKSETKVYTGEGVDSVYRVPIYYKLKVTNDGSKLTFTYTVTYVNPKTNDLGNISSMRPGYSIYNSGTSTQTMLTLGSDLGKPSGVKNYITDKNGRQVLSYNTSTMTTQGSGYTWGNGAQMNGFFAKKGYGLTSSWTVPITGTDTSFTFTPYAARTDRIGINYFNGGGKVVESSTTSQSLSQSKSLSVSAS,glycan array binding signal (z-score),[1],-0.662
same,glycan array binding signal (z-score),Neu5Ac(a2-8)Neu5Ac,0.174
same,glycan array binding signal (z-score),[2],-0.268
same,glycan array binding signal (z-score),[3],2.15
same,glycan array binding signal (z-score),[4],-0.94
same,glycan array binding signal (z-score),[5],-0.777
same,glycan array binding signal (z-score),[6],-0.274
same,glycan array binding signal (z-score),[7],-0.817
same,glycan array binding signal (z-score),[8],-0.531
same,glycan array binding signal (z-score),[9],0.236
same,glycan array binding signal (z-score),[10],2.04
same,glycan array binding signal (z-score),[11],-0.849
same,glycan array binding signal (z-score),[12],-0.64
same,glycan array binding signal (z-score),[13],0.146
same,glycan array binding signal (z-score),[14],-0.981
same,glycan array binding signal (z-score),Neu5Ac(b2-6)GalNAc,-0.595
same,glycan array binding signal (z-score),[15],0.071
same,glycan array binding signal (z-score),[16],-0.235
same,glycan array binding signal (z-score),[17],-0.651
same,glycan array binding signal (z-score),[18],-0.148
same,glycan array binding signal (z-score),[19],0.496
same,glycan array binding signal (z-score),Neu5Gc(a2-3)Gal(b1-4)Glc,-0.207
same,glycan array binding signal (z-score),[20],-0.146
same,glycan array binding signal (z-score),[21],0.176
same,glycan array binding signal (z-score),[22],0.164
same,glycan array binding signal (z-score),[23],0.141
same,glycan array binding signal (z-score),Neu5Gc(a2-6)GalNAc,0.291
same,glycan array binding signal (z-score),[24],-1.02
same,glycan array binding signal (z-score),[25],-0.797
same,glycan array binding signal (z-score),[26],-0.912
same,glycan array binding signal (z-score),[27],-0.847
same,glycan array binding signal (z-score),[28],-0.219

# Rewritten with tabs: entries from further up.
binder	measurement	setting	value
Clone646PsrP (Streptococcus pneumoniae) (protein) MDHHHHHHHHASENLYFQGAPAINASLNIAKSETKVYTGEGVDSVYRVPIYYKLKVTNDGSKLTFTYTVTYVNPKTNDLGNISSMRPGYSIYNSGTSTQTMLTLGSDLGKPSGVKNYITDKNGRQVLSYNTSTMTTQGSGYTWGNGAQMNGFFAKKGYGLTSSWTVPITGTDTSFTFTPYAARTDRIGINYFNGGGKVVESSTTSQSLSQSKSLSVSAS	glycan array binding signal (z-score)	Neu5Gc(a2-6)GalNAc	0.291
same	glycan array binding signal (z-score)	[24]	-1.02
